Results deposited as PubChem BioAssay AID1671195 (Yale University, 2021)
Purpose: 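Knockdowns that increase or decrease uptake of fluorescent LDL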 (primary screen). System: human Huh7 hepatoma cells. Reagent: siRNA pool against human genes, 18 nM. Duration: about 2 to 2.5 days of knockdown, then 8 h LDL uptake. Challenge: DiI-labelled LDL at 30 µg/ml for 8 h, in lipoprotein-deficient serum medium. Detection: 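Fluorescent LDL signal imaged in cells, scaled to the plate median, robust z-score for each replicate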. Direction: robust z-score: higher = more LDL uptake after knockdown. Call rule: 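a gene counts as active if at least two replicate z-scores exceed ±2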.
This is one part, drawn at random, of about 22,000 reagents tested. About 1,510 of all reagents (6.9%) were called active. 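Active includes knockdowns raising or lowering LDL uptake; positive z-scores mean more uptake, negative mean less.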

Which result is listed for U2SURP?
robust z-score, replicate 1: -0.264; robust z-score, replicate 2: -0.408; robust z-score, replicate 3: -0.452; Call: inactive

Which result is listed for PHF10?
robust z-score, replicate 1: -1.1; robust z-score, replicate 2: 1.15; robust z-score, replicate 3: 1.06; Call: inactive

What is on record for ZNF484?
robust z-score, replicate 1: 0.929; robust z-score, replicate 2: 1.06; robust z-score, replicate 3: 0.977; Call: inactive

With PPIL6, how do the results read?
robust z-score, replicate 1: -0.855; robust z-score, replicate 2: -0.552; robust z-score, replicate 3: -0.858; Call: inactive

How did the screen score FLJ26086 (retired record)?
robust z-score, replicate 1: 0.28; robust z-score, replicate 2: -0.274; robust z-score, replicate 3: 0.0743; Call: inactive

Which result is listed for ADGRE5?
robust z-score, replicate 1: 0.702; robust z-score, replicate 2: 1.27; robust z-score, replicate 3: 0.939; Call: inactive

How did the screen score DLAT?
robust z-score, replicate 1: 0.585; robust z-score, replicate 2: 0.954; robust z-score, replicate 3: 0.473; Call: inactive

How did the screen score GNAI1?
robust z-score, replicate 1: -1.87; robust z-score, replicate 2: -1.56; robust z-score, replicate 3: -1.56; Call: inactive

What did the screen give for CHST3?
robust z-score, replicate 1: -0.737; robust z-score, replicate 2: -1.57; robust z-score, replicate 3: -1.71; Call: inactive

Which result is listed for EXOC8?
robust z-score, replicate 1: -2.07; robust z-score, replicate 2: -0.945; robust z-score, replicate 3: -1.57; Call: inactive

With PI15, how do the results read?
robust z-score, replicate 1: 1.12; robust z-score, replicate 2: 1.34; robust z-score, replicate 3: -2.3; Call: inactive

How did the screen score PREP?
robust z-score, replicate 1: -0.0121; robust z-score, replicate 2: 0.717; robust z-score, replicate 3: 0.536; Call: inactive

What did the screen give for TJP3P1?
robust z-score, replicate 1: -0.615; robust z-score, replicate 2: -0.872; robust z-score, replicate 3: -1.57; Call: inactive

For LOC392563 (retired record), what was measured?
robust z-score, replicate 1: -0.0792; robust z-score, replicate 2: 1.13; robust z-score, replicate 3: 0.432; Call: inactive

For SCIMP, what was measured?
robust z-score, replicate 1: 0.89; robust z-score, replicate 2: 0.151; robust z-score, replicate 3: 0.362; Call: inactive

What is on record for JUND?
robust z-score, replicate 1: -1.02; robust z-score, replicate 2: -0.956; robust z-score, replicate 3: -1.3; Call: inactive

For ADAM23, what does the deposit list?
robust z-score, replicate 1: 0.572; robust z-score, replicate 2: 0.55; robust z-score, replicate 3: 1.19; Call: inactive

For CCT7, what was measured?
robust z-score, replicate 1: -0.881; robust z-score, replicate 2: -1.13; robust z-score, replicate 3: -1.38; Call: inactive

What is on record for AJUBA?
robust z-score, replicate 1: 0.696; robust z-score, replicate 2: 3.48; robust z-score, replicate 3: 2.3; Call: active

What did the screen give for LOC400172 (retired record)?
robust z-score, replicate 1: 0.145; robust z-score, replicate 2: -0.13; robust z-score, replicate 3: -0.117; Call: inactive

For LDAF1, what does the deposit list?
robust z-score, replicate 1: 0.464; robust z-score, replicate 2: 0.468; robust z-score, replicate 3: -0.684; Call: inactive

For LOC441068 (retired record), how do the results read?
robust z-score, replicate 1: -0.185; robust z-score, replicate 2: -0.195; robust z-score, replicate 3: -0.495; Call: inactive

With BCAN, what was measured?
robust z-score, replicate 1: 0.821; robust z-score, replicate 2: 1.08; robust z-score, replicate 3: 0.567; Call: inactive

What is on record for VPS16?
robust z-score, replicate 1: -0.767; robust z-score, replicate 2: 0.732; robust z-score, replicate 3: -0.865; Call: inactive
